These are yes or no findings as the source states them, for the method shown. Binding seen in cells or lysates may run through a third protein. Some binding calls cover weakened binding; strength is not graded here. Tags and fused reporters may be left off the sequences shown.

By UniProt entry, the sequences of proteins in these tests, tags left out.
UniProt Q92769: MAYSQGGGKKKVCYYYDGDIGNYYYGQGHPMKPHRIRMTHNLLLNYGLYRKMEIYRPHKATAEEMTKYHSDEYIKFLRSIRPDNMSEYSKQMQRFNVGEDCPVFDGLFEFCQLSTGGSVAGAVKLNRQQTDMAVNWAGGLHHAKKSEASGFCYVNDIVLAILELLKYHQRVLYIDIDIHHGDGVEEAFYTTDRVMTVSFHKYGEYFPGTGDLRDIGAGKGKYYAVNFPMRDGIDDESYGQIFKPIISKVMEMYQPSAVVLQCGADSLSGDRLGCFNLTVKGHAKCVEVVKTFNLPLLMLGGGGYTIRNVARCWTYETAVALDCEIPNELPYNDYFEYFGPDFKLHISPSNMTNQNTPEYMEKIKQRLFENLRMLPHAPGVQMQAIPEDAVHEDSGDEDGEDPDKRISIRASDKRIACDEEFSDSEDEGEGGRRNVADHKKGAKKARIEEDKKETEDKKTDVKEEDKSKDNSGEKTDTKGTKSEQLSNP

The values below come from paper PMC9603796.

One assay addresses T1, FLAG-IRF3 (UniProt Q14653).
T1 sequence: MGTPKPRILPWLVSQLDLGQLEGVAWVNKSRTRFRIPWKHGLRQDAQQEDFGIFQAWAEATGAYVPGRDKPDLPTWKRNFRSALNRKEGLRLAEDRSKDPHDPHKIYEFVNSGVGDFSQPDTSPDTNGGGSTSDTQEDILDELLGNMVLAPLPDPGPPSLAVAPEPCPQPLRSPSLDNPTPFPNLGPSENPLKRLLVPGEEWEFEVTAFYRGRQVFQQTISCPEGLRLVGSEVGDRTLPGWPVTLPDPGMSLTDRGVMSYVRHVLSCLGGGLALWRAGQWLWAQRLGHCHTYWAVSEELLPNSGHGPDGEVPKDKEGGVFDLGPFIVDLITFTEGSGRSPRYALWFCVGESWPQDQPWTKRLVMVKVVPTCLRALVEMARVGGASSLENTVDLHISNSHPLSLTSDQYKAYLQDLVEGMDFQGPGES
Nature of the assay: co-IP.

Another assay has as its target T2, V5-IRF3 (UniProt Q14653).
T2 sequence: T1 sequence
Nature of the assay: co-IP.

As for “histone deacetylase 2 (HDAC2), endogenous (from UniProt Q92769 1-488)”, the binding entry in the assay with FLAG-IRF3 and in the assay with V5-IRF3 was “binds” each time.
